Data reported in publication PMC4001326.
For part of these data: No signal at the amounts used counts as a negative. At least one verdict was read from the data and is not stated in words by the source. For part of these data: Construct, isoform or probe ends are uncertain for at least one entry.

Experiments:
[1] = tested on: pol V Mut E38K/K72R (Escherichia coli (pol V from strain RW644)); assay: fluorescence anisotropy; conditions: 20 mM Tris-HCl pH 7.5, 25 mM Na glutamate, 8 mM MgCl2, 8 mM DTT, 4% glycerol, 0.1 mM EDTA, 37 C, 50 nM labeled hairpin, 500 uM ATP or ATPgS (titrations to 750 uM), recombinant protein, protein details: His (pol V), label: fluorescein (internal dT), folded or branched DNA
[2] = tested on: pol V Mut WT (UmuD'2C-RecA-ATP) (Escherichia coli (pol V from strain RW644)); assay: fluorescence anisotropy; conditions: 20 mM Tris-HCl pH 7.5, 25 mM Na glutamate, 8 mM MgCl2, 8 mM DTT, 4% glycerol, 0.1 mM EDTA, 37 C, 50 nM labeled hairpin, 500 uM ATP or ATPgS (titrations to 750 uM), recombinant protein, protein details: His (pol V), label: fluorescein (internal dT), folded or branched DNA
RecA E38K/K72R E39K,K73R = RecA E38K/K72R E39K,K73R (UniProt P0A7G6); assay: pull-down (ssDNA resin); conditions: ATPgS or ATP; 5' amino-C12 linked to cyanogen bromide-activated Sepharose; 20 mM Tris-HCl pH 7.5, 25 mM Na glutamate, 8 mM MgCl2, 8 mM DTT, 4% glycerol, 0.1 mM EDTA, 37 C; 50 nM labeled hairpin; 500 uM ATP or ATPgS (titrations to 750 uM); recombinant protein; single-stranded DNA
[3] = molecular target: RecA E38K/ΔC17 E39K,del18-18 (UniProt P0A7G6); assay: pull-down (ssDNA resin); conditions: ATPgS or ATP; 5' amino-C12 linked to cyanogen bromide-activated Sepharose; 20 mM Tris-HCl pH 7.5, 25 mM Na glutamate, 8 mM MgCl2, 8 mM DTT, 4% glycerol, 0.1 mM EDTA, 37 C; 50 nM labeled hairpin; 500 uM ATP or ATPgS (titrations to 750 uM); recombinant protein; residues 2-336; single-stranded DNA
[4] = molecular target: RecA WT (Escherichia coli) (UniProt P0A7G6); assay: pull-down (ssDNA resin); conditions: ATPgS or ATP; 5' amino-C12 linked to cyanogen bromide-activated Sepharose; 20 mM Tris-HCl pH 7.5, 25 mM Na glutamate, 8 mM MgCl2, 8 mM DTT, 4% glycerol, 0.1 mM EDTA, 37 C; 50 nM labeled hairpin; 500 uM ATP or ATPgS (titrations to 750 uM); recombinant protein; single-stranded DNA
[5] = 500 uM ATP, fluorescein-dT replacing T44 (from parent S5)
[6] = no nucleotide, fluorescein-dT replacing T44 (from parent S5)
[7] = no nucleotide, fluorescein-dT replacing T17 (from parent S1)

Measured: binding result

CGAAACAGGAAAGCAGTTAGCGCATTCAGCTCATACTGCTGAATGCGCTAACTGC [Fluorescein 12 nt oh HP]
no binding: [1]; [5] | [1]; [6] | [2]; [5] | [2]; [6]

TTTTTTTTTTTTTTTTTTTTTTTTTTTTTTTTTTTTTTTTTTTTT [Amino C12-linked 45mer]
binds: RecA E38K/K72R E39K,K73R | [3] | [4]

AGAGCAGTTAGCGCATTCAGCTCATACTGCTGAATGCGCTAACTGC [Fluorescein 3 nt oh HP]
binds: [1]; ATPgS, fluorescein-dT replacing T17 (from parent S1)
no binding: [1]; ATP, no appreciable binding, though DNA synthesis implies some, fluorescein-dT replacing T17 (from parent S1) | [1]; [7] | [2]; ATP, fluorescein-dT replacing T17 (from parent S1) | [2]; [7]
